Experimental data as given in patent publication US20220033432A1, “ANTI-HEPATITIS B VIRUS AGENT” (priority 2019, published 2022).
Some entries share one result that the patent states for a list of compounds.

Legend:
[1] = tested on: HBV; assay: Anti-HBV activity: intracellular HBV DNA by quantitative PCR in HepG2.2.15 cells; type: cell-based, hepatitis B virus; conditions: summary of Table 1
Protocol: Anti-HBV activity was evaluated by quantitative PCR for determining the amount of HBV DNA in cells on the seventh day after the addition of the agent, using the HepG2.2.15 cell line of HBV-producing cells obtained by introducing a gene having a length twice that of the HBV genome into the human liver cancer cell line HepG2. For PCR of HBV DNA, a forward primer (HBV-S190F; 5′-GCT CGT OTT ACA GGC GGG-3′: SEQ ID NO: 1) and a reverse primer (HBV-S703R; 5′-GAA CCA CTG AAC AAA TOG CAC TAG TA-3′: SEQ ID NO: 2) were used. PCR was performed by carrying out a reaction at 95° C. for 10 sec, 62° C. for 10 sec, and 72° C. for 30 sec for 35 cycles.
Specifically, HepG2.2.15 cells were seeded at a concentration of 1×10^5 cells/well. 24 hours later, the compounds of Example 1 and Comparative Example 1 were diluted to have a concentration of 0, 0.49, 0.97, 1.95, 3.90, 7.81, 15.6, 31.3, 62.5, 125, 250, 500, and 1000 nM, and added to the cells. After the cells were cultured for 7 days, each cytoplasmic compartment was collected, and DNA was purified by phenol-chloroform extraction. 20 ng of the purified DNA was used to measure the amount of intracellular HBV DNA by quantitative PCR.
The EC50 (50% effective concentration) was calculated from a graph showing the relationship between the concentration of the compound and anti-HBV activity.

[2] = tested on: HepG2 NTCP-myc cells; assay: Cytotoxicity test (WST-1) in HepG2 NTCP-myc cells; type: cell-based, human; conditions: summary of Table 2
Protocol: HepG2 NTCP-myc cells were seeded at a concentration of 2×10^4 cells/well. 24 hours later, the compound of Example 1 was diluted to have a concentration of 0, 0.49, 0.97, 1.95, 3.90, 7.81, 15.6, 31.3, 62.5, 125, 250, 500, and 1000 nM, and added to the cells. The HepG2 NTCP-myc cells were cultured for 7 days. After the culture, 10 μl of Premix WST-1 Cell Proliferation Assay System (TaKaRa) was added, and the cells were cultured at 37° C. for 2 hours. Thereafter, absorbance was determined at 450 nm using a microplate reader.
The CC50 (50% cytotoxic concentration) was calculated from a graph showing the relationship between the concentration of the compound and cytotoxicity.

Row | SMILES | anti-HBV activity as compared to the compound of Comparative Example 1 [1] | cytotoxicity [2]
1 | Nc1nc(Cl)c2ncn([C@@H]3O[C@H](CO)C(O)C3F)c2n1 (stereo partly drawn) [Example 1, 9-(2′-deoxy-2′-fluoro-β-D-arabinofuranos-1′-yl)-2-amino-6-chloropurine] | high anti-HBV activity | low cytotoxicity
2 | Nc1nc(F)c2ncn([C@@H]3O[C@H](CO)C(O)C3F)c2n1 (stereo partly drawn) [Example 2, 9-(2′-deoxy-2′-fluoro-β-D-arabinofuranos-1′-yl)-2-amino-6-fluoropurine] | high anti-HBV activity | low cytotoxicity
3 | Nc1nc(I)c2ncn([C@@H]3O[C@H](CO)C(O)C3F)c2n1 (stereo partly drawn) [Example 3, 9-(2′-deoxy-2′-fluoro-β-D-arabinofuranos-1′-yl)-2-amino-6-] | high anti-HBV activity | low cytotoxicity
4 | Nc1nc(N)c2ncn([C@@H]3O[C@H](CO)C(O)C3F)c2n1 (stereo partly drawn) [Example 4, 9-(2′-deoxy-2′-fluoro-β-D-arabinofuranos-1′-yl)-2-amino-6-aminopurine] | high anti-HBV activity | low cytotoxicity
5 | COc1nc(N)nc2c1ncn2[C@@H]1O[C@H](CO)C(O)C1F (stereo partly drawn) [Example 5, 9-(2′-deoxy-2′-fluoro-β-D-arabinofuranos-1′-yl)-2-amino-6-methoxypurine] | high anti-HBV activity | low cytotoxicity
6 | N#Cc1nc(N)nc2c1ncn2[C@@H]1O[C@H](CO)C(O)C1F (stereo partly drawn) [Example 6, 9-(2′-deoxy-2′-fluoro-β-D-arabinofuranos-1′-yl)-2-amino-6-cyanopurine] | high anti-HBV activity | low cytotoxicity
